Here are results for 42 sequences from PMC7819943, “Rice protein-binding microarrays: a tool to detect cis-acting elements near promoter regions in rice”.

This is one part of the list.

The target in this experiment is T1, OsSMF1 (Oryza sativa, UniProt Q6ZLB0 1-436).
T1 sequence: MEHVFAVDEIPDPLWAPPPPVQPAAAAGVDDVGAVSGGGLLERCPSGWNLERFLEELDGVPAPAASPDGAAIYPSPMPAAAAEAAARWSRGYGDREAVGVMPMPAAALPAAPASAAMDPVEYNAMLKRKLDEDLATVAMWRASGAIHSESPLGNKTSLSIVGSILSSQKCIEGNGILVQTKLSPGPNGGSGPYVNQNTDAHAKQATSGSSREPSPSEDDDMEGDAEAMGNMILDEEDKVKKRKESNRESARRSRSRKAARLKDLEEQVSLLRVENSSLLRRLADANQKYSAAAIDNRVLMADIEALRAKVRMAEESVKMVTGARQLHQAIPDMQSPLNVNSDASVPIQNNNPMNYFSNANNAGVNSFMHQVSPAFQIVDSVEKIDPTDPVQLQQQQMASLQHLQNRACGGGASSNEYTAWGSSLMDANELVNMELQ
The experiment is described as follows: protein-binding microarray (RPBM); PBS, 2% BSA, 51.3 ng/ul salmon testes DNA, 50 uM zinc acetate, 200 nM TF, 25 C, 1 h; high values mean tight binding. As to conditions: protein: recombinant; tags: N-terminal polyhistidine and DsRed monomer fusion (pET32a); chain copies: 2; label: CyDye5-dUTP incorporated in the synthesized complementary strand; 3' TTTTT single-stranded linker to array surface; dsDNA, one strand shown. The essentials: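 For the binding signal, per-feature fluorescence intensity was read in arbitrary units on an Axon 4000B scanner. Before scanning, a 2% BSA-blocked custom Agilent array made double-stranded with Cy5-dUTP was washed after 1 h at 25 °C with 200 nM protein and 50 µM zinc acetate. The proteins were Ni–NTA-purified transcription factors with N-terminal polyhistidine and DsRed fusions, expressed in E. coli BL21-CodonPlus.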
As to “ATGTATGATAAACTAAAGCCTGACTCTTCTATGCTTCTTGCGGAGTCACCTAGTGCAG”, the binding signal is 3340 fluorescence intensity (a.u.).

As for “CGTGCCACACCCCGCACGTGCGCAAGTCCATGACGTGAGCCGGAGTCACCTAGTGCAG”, the binding signal is 4660 fluorescence intensity (a.u.). With “ATCGGGGTCGTCACCGCTGGCCAGCACCCCAAGCCTCTGTCGGAGTCACCTAGTGCAG”, the binding signal is 3320 fluorescence intensity (a.u.).

For “TAGAATTTCTCTTCATATAATGCTACGTCATTGCTATATACGGAGTCACCTAGTGCAG”, the binding signal is 10300 fluorescence intensity (a.u.). “GACATGTACACATTAGACTTTGGCAGGAAATTATACTGGCCGGAGTCACCTAGTGCAG”: the binding signal is 19900 fluorescence intensity (a.u.). With “CTGCCCAACAAAGTCCAGAAACTTCACGACATTCAATTGCCGGAGTCACCTAGTGCAG”, the binding signal was 22600 fluorescence intensity (a.u.).

For “AGAGGCGAAATCGCGGCTACGGAGGCGGCGGCGGTGGCGGCGGAGTCACCTAGTGCAG”, the binding signal was 3390 fluorescence intensity (a.u.). Regarding “GACGCTCCACGACGCCCACTGCACTCCCGACACGTTTCCCCGGAGTCACCTAGTGCAG”, the binding signal was 5020 fluorescence intensity (a.u.). For the sequence “GGATCCATGCCCGGGCCTCCACCCTCGTCAGCTCTGTTGACGGAGTCACCTAGTGCAG”, the binding signal is 4860 fluorescence intensity (a.u.).

Regarding “CTCCAAGTATGACATGGACGAGGACATGTCGATACAGGAGCGGAGTCACCTAGTGCAG”, the binding signal was 31800 fluorescence intensity (a.u.). With “TATCCTAAAATAAATACACGTAGTACGTAATGTGGTTCCACGGAGTCACCTAGTGCAG”, the binding signal is 4360 fluorescence intensity (a.u.). For the sequence “TAATACTCTAAATATGTGTCTAAATATCCGATGTGACAGTCGGAGTCACCTAGTGCAG”, the binding signal was 30000 fluorescence intensity (a.u.). With “TGTTCTCCTAGTGATGTTTAGTTGGTTAGTAATGAGGTGGCGGAGTCACCTAGTGCAG”, the binding signal is 5640 fluorescence intensity (a.u.).

Consider “ATCATTCTCCACGTACGCATGCCTCTCTTGCGTGTTATCGCGGAGTCACCTAGTGCAG”, for which the binding signal is 15400 fluorescence intensity (a.u.). “AAAACAGAGGAGTATTCTTATGACGCTGTCAACAAGTTTACGGAGTCACCTAGTGCAG”: the binding signal was 5630 fluorescence intensity (a.u.).

Take “AGGTACAATAATGACATGGCGTAAAGGCCATTGCAATACTCGGAGTCACCTAGTGCAG”: the binding signal is 5380 fluorescence intensity (a.u.). “ATAAATAATTTGCTGACTGGATTGCCACGCGTACGCCACGCGGAGTCACCTAGTGCAG”: the binding signal was 12000 fluorescence intensity (a.u.). As for “CGATTCATCCAGCGATTAGATGGGCCATCGTACCGGCAGGCGGAGTCACCTAGTGCAG”, the binding signal is 3220 fluorescence intensity (a.u.). Next, “CTCATTCGAACTCACCGCGTCACCGTGACTTTGGCGGCGTCGGAGTCACCTAGTGCAG”: 5740 fluorescence intensity (a.u.); “TACACTGGTCAGATTCGGAAGTTCCGGCACAGTCAGACTGCGGAGTCACCTAGTGCAG”: 3990 fluorescence intensity (a.u.); “AATTTGGTCTCTACTTTCTTTTGTCATTGAAATGATGAATCGGAGTCACCTAGTGCAG”: 5660 fluorescence intensity (a.u.).

Consider “AAGCCTTGCTTTGAAATTCCAATTGGACACGTGTCGCATACGGAGTCACCTAGTGCAG”, for which the binding signal was 8130 fluorescence intensity (a.u.).

Turning to “GTCCTTTCAGTCTGTGTCTCGTCATCGCGGCGGTATAAATCGGAGTCACCTAGTGCAG”, the binding signal was 4710 fluorescence intensity (a.u.).

Turning to “TCAATTTTAATGCCACCTGTGCGCCATGTCAACGGCATACCGGAGTCACCTAGTGCAG”, the binding signal was 6490 fluorescence intensity (a.u.). Consider “GACTTGGCCACATCGTTCACACACTTCACTCACACGAGAGCGGAGTCACCTAGTGCAG”, for which the binding signal is 14400 fluorescence intensity (a.u.).

For the sequence “ACATCGGCGGTGGGGCAAGGTGGTGCATGCATAGGTAGGACGGAGTCACCTAGTGCAG”, the binding signal was 19500 fluorescence intensity (a.u.). Next, “GATGGCGCTCACACGGCGGCGTGGCGCAGCGCCGATGGCGCGGAGTCACCTAGTGCAG”: 3410 fluorescence intensity (a.u.). Take “CTTTCTTAATCTAATTTGTGTTTTCTTGACTGTCACGTGCCGGAGTCACCTAGTGCAG”: the binding signal is 3340 fluorescence intensity (a.u.). On to “TGGTGTGAAGAGTGGGACCCACAGGTCAGCCTCATCTGCTCGGAGTCACCTAGTGCAG”, for which the binding signal is 3540 fluorescence intensity (a.u.).

Consider “CGTATATGTATATATACATACTTTATACACATATATATACCGGAGTCACCTAGTGCAG”, for which the binding signal is 3360 fluorescence intensity (a.u.). Consider “GTCATGAGCGACATGATGTGCCTCCACATCGCCATGGCTCCGGAGTCACCTAGTGCAG”, for which the binding signal was 3680 fluorescence intensity (a.u.). As for “TTGCAGCATTCAGCTCGCGTATACACGACCTTAAATTACGCGGAGTCACCTAGTGCAG”, the figure is 3320 fluorescence intensity (a.u.); as for “AGGTGATGAAGACCCACGACGCCGCGTTCGCCACCCGGGCCGGAGTCACCTAGTGCAG”, 17000 fluorescence intensity (a.u.); as for “CGACTGTGAGCCCTCCGTTCTCGCCGCGGAAGGATCCCTCCGGAGTCACCTAGTGCAG”, 29700 fluorescence intensity (a.u.). With “AAAATAGAAAGCCAATTCCTCCCCGTGTCGGCCACTTCTCCGGAGTCACCTAGTGCAG”, the binding signal was 3360 fluorescence intensity (a.u.). Consider “AGCGAAGGAATGGGAGCTCGACACGGCTGTCTGCTGCCACCGGAGTCACCTAGTGCAG”, for which the binding signal was 3300 fluorescence intensity (a.u.). In the case of “TTCATCCATCCTTGCTCCACGTCCCAATCTCCTCCTCCTCCGGAGTCACCTAGTGCAG”, the binding signal was 7980 fluorescence intensity (a.u.). In the case of “ACATCCACAACCATCTCCACCTCACCTCGTCCATCGTCTCCGGAGTCACCTAGTGCAG”, the binding signal was 6010 fluorescence intensity (a.u.). “ATTTGTGGGCCCCACTGCCAGTGACTCTTCTGTCCACTGCCGGAGTCACCTAGTGCAG”: the binding signal was 4390 fluorescence intensity (a.u.). Next, “AATATTTGCGACTTGGTACGTTGCGTCCCATAGCCTCACTCGGAGTCACCTAGTGCAG”: 3590 fluorescence intensity (a.u.); “TAGGTCATTCTAACATTTTCCACATTAATATGCATGTTACCGGAGTCACCTAGTGCAG”: 29200 fluorescence intensity (a.u.).

“CTGTAGGTGAGTGACACTAGTACTCATCATCATCATCATCCGGAGTCACCTAGTGCAG”: the binding signal was 4600 fluorescence intensity (a.u.).
